Test results taken from PMC3849192, “A Simple Method for Assessing Free Brain/Free Plasma Ratios Using an In Vitro Model of the Blood Brain Barrier” (PLoS ONE, 2013).

Experiments:
[1] = male, Sprague-Dawley, rat
Method: Rats (male Sprague-Dawley) were decapitated under isoflurane anesthesia and the brains were removed carefully and immersed in ice-cold oxygenated physiological buffer at pH7.4. A 6 mm coronal section was cut with a razor and mounted with cyanoacrylate glue onto the tray of the microslicer (DTK-Zero 1 Microslicer, Dosak) after which six to eight 300 µm coronal slices from striatal areas were prepared. […] The compounds were dissolved at 1 µM in the buffer and the solution was incubated with the slice for 5 h.
After 5 h, the brain slices were weighed and homogenized in 9 volumes (w/v) of ECF buffer with a sonicator (SONICS VCX 500 and VCX 130). The slice homogenates in ECF buffer were stored at −20°C prior to analysis. The concentrations of the test compound in the brain slice homogenate and in the ECF buffer was determined by LC-MS/MS.
The unbound volume of distribution Vu,brain, or free fraction fu,brain was calculated according to the following equations: [drawing 1] [drawing 2] where Cslice, CECF and V0 are amount of drug in the slice, the drug concentration in the ECF (representing the drug concentration in the brain ECF, i.e. the free concentration), and the water adhesion of the brain slice. V0 has been estimated using ^14C -inulin in a separate experiment in which brain slices were incubated for 1, 2, and 4 min. […]

[2] = Method: The degree of brain binding was assessed by equilibrium dialysis. Brain homogenate (10%) was spiked with test compound at 1 µM in triplicate. […] The plate was then placed in a shaker/incubator to equilibrate for 18 hrs at 37°C. […] After the addition of 50 µl of buffer to the brain homogenate samples, 150 µl of acetonitrile was added to each sample. Finally, 50 µl of water was added to all buffer and brain homogenate samples. The plates were centrifuged and the supernatant analyzed by LC-MS/MS.

SMILES: CN1C(=O)CN=C(c2ccccc2)c2cc(Cl)ccc21 [Diazepam]
- fubrain (slice) Mean [1]: 0.0500
- fubrain (homog.) Mean [2]: 0.0500

SMILES: CN1CC[C@]23c4c5ccc(O)c4O[C@H]2[C@@H](O)C=C[C@H]3[C@H]1C5 [Morphine]
- fubrain (slice) Mean [1]: 0.3700
- fubrain (homog.) Mean [2]: 0.5000
